Laboratory results from US20180221336A1, “DOSE SPARING KETOROLAC FORMULATIONS AND METHODS AND DEVICES FOR USE WITH SAME” (SteadyMed, Ltd., priority 2017, published 2018).
At least one read-out could not be matched to a standard name with certainty.

Conditions: Treatment A

Work on `O=C(c1ccccc1)c1ccc2n1CCC2C(=O)O` (racemic) [Ketorolac, (±)-5-benzoyl-2,3-dihydro-1H-pyrrolizine-1-carboxylic acid, compound with 2-amino-2-(hydroxymethyl)-1,3-propanediol] yielded a Vz/F of 29.10 ± 10.912 µL.
